# Primary screen of a compound library

The chains behind the UniProt entries cited, without tags or fusion partners. Residues count along the entry.
UniProt P9WFT3, whole entry: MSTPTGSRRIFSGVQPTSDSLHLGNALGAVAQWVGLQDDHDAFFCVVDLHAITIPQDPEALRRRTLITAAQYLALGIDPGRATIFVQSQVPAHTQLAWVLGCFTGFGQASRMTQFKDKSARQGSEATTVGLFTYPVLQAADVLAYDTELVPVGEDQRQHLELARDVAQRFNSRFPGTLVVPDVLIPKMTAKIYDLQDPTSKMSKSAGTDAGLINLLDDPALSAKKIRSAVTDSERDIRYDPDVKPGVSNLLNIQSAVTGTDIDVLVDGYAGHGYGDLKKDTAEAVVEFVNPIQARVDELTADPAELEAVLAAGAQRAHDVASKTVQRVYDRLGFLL
UniProt P9WPC5, whole entry: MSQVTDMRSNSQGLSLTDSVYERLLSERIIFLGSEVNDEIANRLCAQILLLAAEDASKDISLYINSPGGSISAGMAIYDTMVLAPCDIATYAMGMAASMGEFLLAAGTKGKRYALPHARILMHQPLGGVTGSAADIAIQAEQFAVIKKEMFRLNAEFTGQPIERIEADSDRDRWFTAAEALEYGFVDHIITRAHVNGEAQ
UniProt P9WPC3, whole entry partner: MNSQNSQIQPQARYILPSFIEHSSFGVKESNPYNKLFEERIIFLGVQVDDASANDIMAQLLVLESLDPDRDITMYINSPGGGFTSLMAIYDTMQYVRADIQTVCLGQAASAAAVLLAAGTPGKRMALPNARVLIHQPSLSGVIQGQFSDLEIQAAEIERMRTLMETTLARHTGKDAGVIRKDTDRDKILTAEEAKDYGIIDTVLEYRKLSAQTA
UniProt Q4DA54, 1-478: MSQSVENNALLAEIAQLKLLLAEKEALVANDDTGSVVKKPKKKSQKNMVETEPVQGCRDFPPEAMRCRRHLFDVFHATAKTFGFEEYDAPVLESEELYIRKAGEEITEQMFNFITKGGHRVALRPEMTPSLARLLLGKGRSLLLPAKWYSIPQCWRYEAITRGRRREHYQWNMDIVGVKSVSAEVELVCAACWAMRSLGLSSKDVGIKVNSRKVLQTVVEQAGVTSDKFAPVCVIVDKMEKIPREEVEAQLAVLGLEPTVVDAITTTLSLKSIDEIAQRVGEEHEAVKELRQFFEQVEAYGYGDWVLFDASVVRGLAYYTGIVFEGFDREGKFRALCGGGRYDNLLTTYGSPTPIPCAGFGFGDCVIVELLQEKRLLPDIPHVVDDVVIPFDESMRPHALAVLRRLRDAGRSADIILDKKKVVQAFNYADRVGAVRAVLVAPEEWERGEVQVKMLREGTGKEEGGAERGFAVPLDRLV

MtTrpRS: 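Tryptophan-tRNA ligase, Mycobacterium tuberculosis (UniProt P9WFT3). Enzyme assay of tryptophanyl-tRNA synthetase; the read-out is not stated. Tested at 10 µM. Direction is not recorded; retested compounds ran higher, which suggests that high means inhibition. Of about 65,000 compounds tested this way, about 64 (0.098%) reached 50% or more in at least one test.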
ClpP1P2: 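ClpP1P2, Mycobacterium tuberculosis (UniProt P9WPC5 and UniProt P9WPC3). Protease assay of ClpP1P2, read by the AMC dye that it sets free. Tested at 50 µM. Direction is inferred from only a few compounds that gave an IC50; most scored high, so higher reads as stronger inhibition. Most other retested compounds had strongly negative values. About 69,000 compounds were tested under these conditions; 0.015% (about 10) showed 50% or more at least once.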
TcHisRS: 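Enzyme assay of histidyl-tRNA synthetase; the read-out is not stated. Target: Histidine-tRNA ligase, Trypanosoma cruzi CL Brener (UniProt Q4DA54). Tested at 30 µM. Direction is inferred from retests: higher values go with stronger inhibition. Of about 69,000 compounds tested this way, about 31 (0.045%) reached 50% or more in at least one test.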

Values are the deposited “Percent Effect”, in %. The record does not define 0% and 100%; most values in the screen are far below 50% and negative numbers occur (in some assays of this library far below -100). Compounds were drawn at random from those tested, without regard to their results.

Compound: NC(=O)c1nc2c(s1)CCN(Cc1ccccc1)CC2
MtTrpRS: -2.468%
ClpP1P2: -1.879%
TcHisRS: 2.674%

Compound: O=C(NCc1ccncc1)c1nc2c(o1)CN(C(=O)c1cccnc1)C2
MtTrpRS: -2.604%
ClpP1P2: -2.265%
TcHisRS: 9.804%

Compound: CN(C)C(=O)CCNC(=O)NCc1ccc(Br)cc1Cl
MtTrpRS: -3.718%
ClpP1P2: -1.018%
TcHisRS: 1.235%

Compound: CC(C)(C)C(=O)NCCC1CN(Cc2ccccc2F)CCO1 (stereo not shown)
MtTrpRS: -1.288%
ClpP1P2: -1.224%
TcHisRS: 8.929%

Compound: CC(C)CS(=O)(=O)NC(=O)c1ccc2c(c1)ncn2C
MtTrpRS: -4.863%
ClpP1P2: -10.56%
TcHisRS: 13.81%

Compound: Cc1ccc(OCC(=O)NC2(C#N)CCSCC2)cc1C
MtTrpRS: 10.59%
ClpP1P2: -7.875%
TcHisRS: 2.976%

Compound: Cc1ncsc1CN1C[C@H]2OCC[C@H]2[C@H](C(=O)NCC2CC2)C1
MtTrpRS: 0.3003%
ClpP1P2: -17.96%
TcHisRS: 0.8772%

Compound: COc1ccc(NC(=O)Cn2ccc3c(=O)n(C)ccc32)cc1OC
MtTrpRS: 2.054%
ClpP1P2: -3.316%
TcHisRS: 2.513%

Compound: COCC(=O)N1CCC([C@@H]2C[C@H](C(F)(F)F)n3nc(C)cc3N2)CC1
MtTrpRS: -0.7536%
ClpP1P2: 1.806%
TcHisRS: 5.224%

Compound: CC(C)c1nc2n(n1)CC(NCc1nnc(C3CC3)o1)CC2 (stereo not shown)
MtTrpRS: -3.531%
ClpP1P2: -25.7%
TcHisRS: 4.942%

Compound: CCN(CCC(=O)OC)C(=O)c1cc(F)cc2[nH]cnc12
MtTrpRS: 0.07886%
ClpP1P2: -10.22%
TcHisRS: 2.439%

Compound: Cc1noc(C)c1CN1CC2(CCCCN2C)CC1=O (stereo not shown)
MtTrpRS: 9.937%
ClpP1P2: -0.9664%
TcHisRS: 5.376%

Compound: COCC1c2nnn(CC3CC3)c2CCN1C(=O)Cc1cccs1 (stereo not shown)
MtTrpRS: 1.006%
ClpP1P2: -13.76%
TcHisRS: 2.542%

Compound: c1ccc2c(N3CCSCC3)cnnc2c1
MtTrpRS: -4.658%
ClpP1P2: 5.318%
TcHisRS: 5.82%

Compound: Cc1noc([C@H]2C[C@@H]3CCN(CC4CC4)C[C@H]3O2)n1
MtTrpRS: 6.064%
ClpP1P2: -9.419%
TcHisRS: 1.087%

Compound: Cc1nccc(-c2cccc(NCC(=O)N3CCOCC3)c2)n1
MtTrpRS: -7.248%
ClpP1P2: -2.264%
TcHisRS: 6.936%

Compound: COCC(C)(C)NS(=O)(=O)C1CS(=O)(=O)c2ccccc21 (stereo not shown)
MtTrpRS: -3.199%
ClpP1P2: 3.115%
TcHisRS: 3.896%

Compound: O=C(CN1CCCC1=O)N1CCC(O)(Cn2ccc3ccncc32)CC1
ClpP1P2: -10.62%
TcHisRS: 4.494%

Compound: COCc1cc(O)nc(C2CCCN(Cc3ccc(F)cc3)C2)n1 (stereo not shown)
ClpP1P2: -16.94%
TcHisRS: 6.593%

Compound: CN(Cc1ccsc1)C(=O)c1n[nH]c(N)c1-c1ccccc1
MtTrpRS: -1.728%
ClpP1P2: -4.044%
TcHisRS: 12.87%

Compound: Cc1ccc(CN2CCC3(C2)C(=O)N(CC(C)C)c2ccccc23)s1 (stereo not shown)
MtTrpRS: 1.313%
ClpP1P2: -15.48%
TcHisRS: 9.091%

Compound: CC(C)Nc1cccc(CC2CCN(C)C2)n1 (stereo not shown)
MtTrpRS: 2.039%
ClpP1P2: -9.183%
TcHisRS: 12.17%

Compound: NC(=O)Nc1cccc(C(=O)N(Cc2ccc(F)cc2)C2CC2)c1
MtTrpRS: 0.3303%
ClpP1P2: -2.674%
TcHisRS: 0.5128%

Compound: Cc1nn(C)cc1-c1cc(C(=O)NCC(C)(C)c2cccc(F)c2)n[nH]1
MtTrpRS: -0.651%
ClpP1P2: -18.81%
TcHisRS: 5.747%

Compound: Cn1cc(S(=O)(=O)Nc2ccc(Cl)cn2)cc1C(N)=O
MtTrpRS: 2.02%
ClpP1P2: -6.234%
TcHisRS: 6.122%

Compound: CCNC(=O)NCc1cccc(N2CC=CC2)c1
MtTrpRS: 2.062%
ClpP1P2: 0.5954%
TcHisRS: 3.191%

Compound: O=C(CC1CN(Cc2ccccc2)CCO1)Nc1ccsc1 (stereo not shown)
MtTrpRS: -1.872%
ClpP1P2: -16.77%
TcHisRS: -0.4484%

Compound: Cc1nc(NC(=O)NCc2nc3cccc(C)c3n2C)oc1C
MtTrpRS: 4.471%
ClpP1P2: -4.156%
TcHisRS: 4.372%

Compound: Cc1cc(N2CCC(O)(CN(C)C(=O)CCN)CC2)c2cnccc2n1
MtTrpRS: -2.514%
ClpP1P2: -29.94%
TcHisRS: 5.429%

Compound: CC(=O)Nc1ncc(S(=O)(=O)Nc2ccccc2)s1
MtTrpRS: 0.1295%
ClpP1P2: 8.201%
TcHisRS: 6.957%

Compound: O=C(c1cnco1)N1CCCC(Cc2cccc3ncccc23)C1 (stereo not shown)
MtTrpRS: -2.592%
ClpP1P2: 4.759%
TcHisRS: -1.622%

Compound: CCN(Cc1ccc(C)o1)C(=O)C(C)n1ccnc1C(C)C (stereo not shown)
MtTrpRS: -2.976%
ClpP1P2: 1.891%
TcHisRS: 3.483%

Compound: COc1ccc(-n2ccc(C(=O)N(CCN(C)C)C(C)C)n2)cc1
MtTrpRS: -1.708%
ClpP1P2: -3.272%
TcHisRS: 0%

Compound: O=S(=O)(NCCc1nc(-c2cccnc2)n[nH]1)NCc1ccccc1
MtTrpRS: 0.2241%
ClpP1P2: -18.49%
TcHisRS: 4.706%

Compound: Cc1nc(CCN(C)C(=O)CCNC(=O)c2ccccc2F)no1
MtTrpRS: 0.06915%
ClpP1P2: -19.57%
TcHisRS: 0%

Compound: COCC[C@]1(O)CCN(C(=O)CCc2cnn(C)c2)C[C@H]1C
MtTrpRS: -7.138%
ClpP1P2: 5.565%
TcHisRS: 4.865%

Compound: Fc1ccc(OCc2nnc([C@H]3CCN(Cc4cccnc4)C3)o2)cc1
MtTrpRS: -8.66%
ClpP1P2: -7.163%
TcHisRS: 10.89%

Compound: CC(NCc1cnc(C2CCC2)s1)c1ccc(-n2cccn2)cc1 (stereo not shown)
MtTrpRS: -7.433%
ClpP1P2: -6.436%
TcHisRS: 3.704%

Compound: O=C(Nc1ccc2c(c1)OCO2)N1CCN(CCc2ccccc2)CC1
MtTrpRS: -0.4955%
ClpP1P2: -13.26%
TcHisRS: 0.5128%

For reference, 2 entries once more:

Compound	MtTrpRS	ClpP1P2	TcHisRS
CCN(CCC(=O)OC)C(=O)c1cc(F)cc2[nH]cnc12	0.07886%	-10.22%	2.439%
Cc1noc(C)c1CN1CC2(CCCCN2C)CC1=O (stereo not shown)	9.937%	-0.9664%	5.376%

From ChEMBL document CHEMBL3988442, “University of Dundee, Small-Polar-MMV Screening Library” (2021).